# From patent US7977455 (dated 2011)
# Assay: general procedure: Boc solid-phase peptide synthesis; MBHA resin (Peninsula), 0.91 mmol/g; PAM resin for C-terminal acids; HBTU/DIEA
# Conditions: whole synthesis, analytical HPLC, scale of the general procedure 0.20 mmol
row,Substance,final HPLC purity [%]
1,"(Aib^8,35, A6c^32)hGLP-1(7-36)NH2",88
2,(Gly^8: β-Ala^35)hGLP-1(7-36)NH2,99
3,"(Aib^8, Lys^18, β-Ala^35)hGLP-1(7-36)NH2",97
4,"(Aib^8,35, Arg^26,34, Lys^36(N^ε-octanoyl))hGLP-1(7-36)NH2",99
5,"(Aib^8, Arg^26,34, β-Ala^35, Lys^37(N^ε-decanoyl))hGLP-1(7-37)NH2",99
6,"(Aib^8,35, Arg^26,34, Ava^37, Ado^38)hGLP-1(7-38)NH2",98
7,"(Aib^8,35, Nal^12,31)hGLP-1(7-36)NH2",99
8,"(Aib^8,35, Glu^23)hGLP-1(7-36)NH2",99
9,"(Aib^8, β-Ala^35, Ser^37(O-decanoyl))hGLP-1(7-37)NH2",99
10,"(Aib^8, D-Arg^36)hGLP-1(7-36)NH2",92
11,"(Aib^8, β-Ala^35, D-Arg^37)hGLP-1(7-37)NH2",94.30
12,"(Aib^8,35, Arg^26,34, Asp^37, Ava^38, Ado^39)hGLP-1(7-39)NH2",98
13,"(Aib^8,35, Lys^25, Arg^26,34, Lys^36(N^ε-decanoyl))hGLP-1(7-36)OH",95
14,"(Aib^8, Arg^26,34, β-Ala^35, Lys^37(N^ε-tetradecanoyl))hGLP-1(7-37)NH2",99
15,"(Aib^8,35, Nal^31)hGLP-1(7-36)NH3",99
16,"(Aib^8,27, β-Ala^35,37, Arg^38)hGLP-1(7-38)NH2",99.40
17,"(Gly^8, Aib^35)hGLP-1(7-36)NH2",93
18,"(Aib^8,27, β-Ala^35,37, Arg^38, Lys^39(N^ε-octanoyl))hGLP-1(7-39)NH2",95
19,"(Aib^8, Glu^23, β-Ala^35)hGLP-1(7-36)NH2",99
20,"(Aib^8, Glu^22,23, β-Ala^35)hGLP-1(7-36)NH2",97.50
21,"(Aib^8, D-Arg^35)hGLP-1(7-36)NH2",99
22,"((Nα-HEPES-His)^7, Aib^8,35)hGLP-1(7-36)NH2",99
23,"(Aib^8,35, Arg^26,34,)hGLP-1(7-36)NH2",96
24,"(Aib^8, Lys^33, β-Ala^35)hGLP-1(7-36)NH2",97.70
25,"(Aib^8,35, Phe^31)hGLP-1(7-36)NH2",93
26,"(Aib^8,35)hGLP-1(7-36)NH2",94
27,"(Aib^8,27, β-Ala^35,37, Arg^38,39)hGLP-1(7-39)NH2",99

row,Substance,final HPLC purity [%]
1,"(Aib^8, Lys^18, Leu^27, β-Ala^35)hGLP-1(7-36)NH2",97.20
2,"(Aib^8,27, β-Ala^35)hGLP-1(7-36)NH2",98
3,"(Aib^8, Leu^27, β-Ala^35)hGLP-1(7-36)NH2",99
4,"(Aib^8,35, Nal^28,31)hGLP-1(7-36)NH2",99
5,"(Aib^8, Lys^27, β-Ala^35)hGLP-1(7-36)NH2",95
6,"(Ser^8, β-Ala^35)hGLP-1(7-36)NH2",98
7,"(Aib^8, β-Ala^35, Arg^38)hGLP-1(7-38)NH2",93
8,"(Aib^8, Phe^31, β-Ala^35)hGLP-1(7-36)NH2",99.20
9,"(Aib^8,25,35)hGLP-1(7-36)NH2",99
10,"(Aib^8,35, Nal^19,31)hGLP-1(7-36)NH2",94
11,"(Aib^8,35, Arg^26,34, Aun^37)hGLP-1(7-37)NH2",97.90
12,"(Aib^8, Arg^26,34, β-Ala^35)hGLP-1(7-36)NH2",97
13,"(Aib^8, Arg^26,34, β-Ala^35, Lys^37(N^ε-dodecanoyl))hGLP-1(7-37)NH2",99
14,"(Aib^8,35, Arg^34, Lys^26(N^ε-decanoyl))hGLP-1(7-36)NH2",93
15,"(Aib^8, β-Ala^35, Arg^37)hGLP-1(7-37)NH2",90
16,"(Aib^8,35, Arg^26,34, Lys^36(N^ε-dodecanoyl))hGLP-1(7-36)NH2",98
17,"(Aib^8,35, Arg^26,34, Lys^36(N^ε-decanoyl))hGLP-1(7-36)OH",99
18,"(Aib^8, Arg^26,34, β-Ala^35, Lys^37(N^ε-octanoyl))hGLP-1(7-37)NH2",99
19,"(Aib^8, Lys^18,27, β-Ala^35)hGLP-1(7-36)NH2",97
20,"(Aib^8, Arg^26,34, β-Ala^35, Lys^37(N^ε-dodecanoyl))hGLP-1(8-37)NH2",99
21,"(Aib^8,35, Glu^23, A6c^32)hGLP-1(7-36)NH2",97
22,"(Aib^8,35, Arg^26,34, Phe^31)hGLP-1(7-36)NH2",99
23,"(Aib^8,24,35)hGLP-1(7-36)NH2",99
24,"(Aib^8,35, Arg^26,34, Nal^31)hGLP-1(7-36)NH2",99
25,"(Aib^8, Arg^26,34, β-Ala^35, D-Asp^37, Ava^38, Aun^39)hGLP-1(7-39)NH2",94
26,"(Aib^8,35, Lys^36(N^ε-decanoyl))hGLP-1(7-36)NH2",97.40
